This note sets out measurements from patent publication US8431529B2, “Bi-dentate compounds as kinase inhibitors” (Sanford-Burnham Medical Research Institute, priority 2007, dated 2013).

Chains of the proteins cited; added tags and fusions are not shown.
UniProt P45983, whole entry: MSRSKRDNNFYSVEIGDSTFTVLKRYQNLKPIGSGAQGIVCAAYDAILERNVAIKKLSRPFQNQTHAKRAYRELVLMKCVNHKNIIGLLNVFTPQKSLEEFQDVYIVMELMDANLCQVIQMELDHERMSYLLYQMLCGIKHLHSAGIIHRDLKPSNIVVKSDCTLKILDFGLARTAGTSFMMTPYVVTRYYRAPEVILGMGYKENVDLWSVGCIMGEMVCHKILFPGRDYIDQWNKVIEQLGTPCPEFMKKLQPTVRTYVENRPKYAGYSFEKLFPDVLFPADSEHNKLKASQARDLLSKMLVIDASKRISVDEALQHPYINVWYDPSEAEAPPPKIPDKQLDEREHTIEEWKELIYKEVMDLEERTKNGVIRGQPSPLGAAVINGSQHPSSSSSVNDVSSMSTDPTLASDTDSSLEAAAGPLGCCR
UniProt Q16539, whole entry: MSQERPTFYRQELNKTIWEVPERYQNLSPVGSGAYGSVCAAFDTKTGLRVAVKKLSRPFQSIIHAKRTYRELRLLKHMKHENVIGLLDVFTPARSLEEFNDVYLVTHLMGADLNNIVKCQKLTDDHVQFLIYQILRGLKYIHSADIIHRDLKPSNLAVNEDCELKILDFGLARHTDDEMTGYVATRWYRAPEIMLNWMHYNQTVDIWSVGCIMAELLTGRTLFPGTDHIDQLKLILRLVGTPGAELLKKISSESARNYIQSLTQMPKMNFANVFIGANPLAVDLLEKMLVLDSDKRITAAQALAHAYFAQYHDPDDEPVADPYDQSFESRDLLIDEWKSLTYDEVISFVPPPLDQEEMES

The match of structure and compound is tentative.

Test [1] concerns the target T1, JNK1 (Homo sapiens, UniProt P45983). The experiment in a line: DELFIA assay: displacement of biotinylated pepJIP1 (L-JIP1 peptide) from GST-JNK1. Format: binding. As to conditions: read-out: Delfia Assay (Displacement of L-JIP1 peptide from JNK) IC50; Table 1.
The target in test [2] is T1, JNK1. The experiment in a line: LanthaScreen TR-FRET in vitro kinase activity assay, JNK1 phosphorylation of ATF2. The settings on record: read-out: Kinase Activity Assay (JNK) IC50; Table 1. Format: biochemical. A general note: In TR-FRET formats the signal depends on donor and acceptor labels being close together.
A further test deals with p38α (Homo sapiens, UniProt Q16539). The experiment in a line: LanthaScreen kinase activity assay with ATF2 substrate versus p38α. Format: biochemical. The settings on record: read-out: Kinase Activity Assay (p38[…]) IC50; Table 1. On the procedure: In order to confer further favorable pharmacological properties to this compound for in vivo studies, analogous to the clinical candidate D-JNK1^15, an all-D retro-inverso version of BI77B8 fused to the cell penetrating HIV-TAT sequence was prepared. […] LanthaScreen™ In vitro Kinase Assay. LanthaScreen™ assay platform from Invitrogen was utilized. The time-resolved fluorescence resonance energy transfer assay (TR-FRET) was performed in 384 well plates. […] After this time, the terbium labeled antibody and EDTA were added into each well. After an additional hour incubation, the signal was measured at 520/495 nm emission ratio on a BMG Pherastar fluorescence plate reader.

`CC(C)C[C@H](NC(=O)[C@H](CC(N)=O)NC(=O)[C@H](CC(C)C)NC(=O)[C@@H](NC(=O)[C@@H](NC(=O)[C@@H]1CCCN1C(=O)[C@@H](N)CCCNC(=N)N)[C@@H](C)O)[C@@H](C)O)C(=O)NCC(=O)NCC(=O)NCCCNC(=O)c1ccc(-c2n[nH]c3ccccc23)cc1`: the results for the IC50 on JNK1 [1], on JNK1 [2] and at p38α were 2 nM, 0.7 nM and 190 nM, respectively.

The IC50 is the point on the concentration scale where inhibition reaches its midpoint.
